Measured data: PubChem BioAssay AID1259405 (NCATS, 2018)
Here is a random part of about 50,000 reagents. In the full data, about 4,000 (8%) are marked active. 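Mouse siRNA library applied to hamster cells; one well for each siRNA.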 A number with no mark means an inactive call. Reagents against one gene are numbered here. No sequences are given here.

Purpose: 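Knock-downs that lift recombinant protein yield in hamster ovary cells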 (primary screen)
Cell system: Chinese hamster CHO-K1 ovary cells with stable secreted eGFP expression
Knock-down reagent: single siRNA against mouse genes, 0.8 pmol siRNA per well (2 µl of 400 nM stock)
Timing: 3 days
Measurement: 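Percent of the per-plate non-targeting control median for intracellular GFP per well by laser scanning cytometry and for cell viability by ATP luminescence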
Reading the numbers: GFP, % of control: higher = more GFP per well, higher productivity; viability (ATP), % of control: higher = more viable cells (more ATP)
Active means: 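a knock-down is called active if GFP reaches 120% or more of non-targeting control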

Gene	reagent no.	GFP, % of control	viability (ATP), % of control
Rbfox1	1	77.7	94.5
Rbfox1	2	118	109
Rbfox1	3	99.7	63
Npas1	1	95.2	146
Npas1	2	145 (active)	94.3
Npas1	3	0	125
Dtl	1	67.1	84.1
Dtl	2	59.5	58.5
Dtl	3	90.2	57.5
Or6d14	1	103	70.4
Or6d14	2	65.3	68.5
Or6d14	3	29.9	36.8
Hdlbp	1	113	113
Hdlbp	2	133 (active)	92.6
Hdlbp	3	79.6	47.8
Pak1ip1	1	83.8	85.6
Pak1ip1	2	62.3	51.5
Pak1ip1	3	109	97.2
Mtrfr	1	78.9	77.3
Mtrfr	2	75.8	70.6
Mtrfr	3	57.5	27.4
Tfg	1	75.4	74.9
Tfg	2	129 (active)	105
Tfg	3	118	144
Col4a1	1	70.1	65.8
Col4a1	2	164 (active)	68.8
Col4a1	3	60.9	64.8
Dhx30	1	104	116
Dhx30	2	97.6	77.1
Dhx30	3	78.9	54.5
Lin7c	1	59	70.6
Lin7c	2	63.6	75.9
Ppp4r3a	1	90.2	94.5
Ppp4r3a	2	44.8	58.2
Ppp4r3a	3	99.1	107
Slc68a1	1	80.2	106
Slc68a1	2	69.6	75
Slc68a1	3	91	98.7
Scgb1b27	1	100	71
Scgb1b27	2	55.8	49
Scgb1b27	3	103	96.9
Cfb	1	42	64.9
Cfb	2	46.7	67.1
Slco1a4	1	90.7	67.8
Slco1a4	2	124 (active)	101
Slco1a4	3	85.8	96.8
Atp2a1	1	19.6	23.6
Atp2a1	2	50.2	70.6
Atp2a1	3	46.8	57.1
Dusp2	1	69	72.6
Dusp2	2	71.6	68
Sema3d	1	85.8	78
Sema3d	2	95.5	68
Sema3d	3	91.1	75.8
Drc5	1	106	71.9
Drc5	2	102	90.1
Drc5	3	134 (active)	119
Or8u9	1	90.2	55.2
Or8u9	2	121 (active)	95.3
Or8u9	3	82.5	61.9
Mc3r	1	59.7	60
Mc3r	2	46.6	76.3
Mc3r	3	74.4	75.1
Col6a1	1	88.4	109
Col6a1	2	71.2	82.3
Ptpn12	1	78.3	81.8
Ptpn12	2	128 (active)	62.4
Ptpn12	3	87.8	70.5

Not a retest: entries from further up.
Gene	reagent no.	GFP, % of control	viability (ATP), % of control
Npas1	1	95.2	146
Npas1	2	145 (active)	94.3
Npas1	3	0	125
Dtl	1	67.1	84.1
Dtl	2	59.5	58.5
Dtl	3	90.2	57.5
Or6d14	1	103	70.4
Or6d14	2	65.3	68.5
Or6d14	3	29.9	36.8
Hdlbp	1	113	113
Hdlbp	2	133 (active)	92.6
Hdlbp	3	79.6	47.8
Pak1ip1	1	83.8	85.6
Pak1ip1	2	62.3	51.5
Pak1ip1	3	109	97.2
Mtrfr	1	78.9	77.3

The list goes on:
Gene	reagent no.	GFP, % of control	viability (ATP), % of control
Ppp1r9b	1	19.1	35.9
Ppp1r9b	2	124 (active)	80.3
Plxdc2	1	42.7	61.6
Plxdc2	2	44.7	51.8
Plxdc2	3	76.3	53.1
Ddc	1	90.6	133
Ddc	2	74.6	78.3
Ddc	3	243 (active)	79.5
Lyset	1	29.8	33.8
Lyset	2	80.7	50.2
Lyset	3	84.4	79.3
Gzma	1	137 (active)	101
Gzma	2	62.5	31.7
Gzma	3	65.9	57.7
Usp17lb	1	115	99.2
Usp17lb	2	174 (active)	95.2
Usp17lb	3	67.8	61.1
Neu4	1	91.8	82.4
Neu4	2	60.1	73.4
Neu4	3	45.2	77.1
Emx1	1	69.1	73.2
Emx1	2	91.6	64.7
Emx1	3	30.4	24.4
Col9a2	1	82.3	122
Col9a2	2	95.5	97.6
Adgrl4	1	109	127
Adgrl4	2	93.1	84.5
Adgrl4	3	36	73
Skp2	1	77.3	92.1
Skp2	2	43.8	38.3
Prl2a1	1	64.8	47.3
Prl2a1	2	115	81.9
Prl2a1	3	67.8	89.9
Zfp790	1	137 (active)	75.1
Zfp790	2	105	91.4
Zfp790	3	83.1	92.8
Or8s10	1	106	74
Or8s10	2	93.9	60.2
Or8s10	3	50.1	25.7
